The exact form of at least one protein or probe is not confirmed. Protein sequences can lack the tags named with them.
Key:
[1] = molecular target: T1, carcinoembryonic antigen (CEA) (UniProt P06731); assay: electrochemical sensor (cyclic voltammetry, impedance); settings: aptamer on graphene-ZnO electrode, +0.8 V pulse, peak current decrease from 1 fg/ml CEA (LOD, not Kd); 5'-NH2; covalently immobilized via MTS/GMBS on ZnO nanorods; CEA diluted in 100 mM PBS, 10 min at room temperature, DI water wash; CV in 1 mM K3Fe(CN)6/K4Fe(CN)6; aptamer stock in 10 mM Tris-HCl, 1 mM EDTA, 0.1 M NaCl, pH 7.40; single-stranded DNA
T1 sequence (looked up, limits assumed): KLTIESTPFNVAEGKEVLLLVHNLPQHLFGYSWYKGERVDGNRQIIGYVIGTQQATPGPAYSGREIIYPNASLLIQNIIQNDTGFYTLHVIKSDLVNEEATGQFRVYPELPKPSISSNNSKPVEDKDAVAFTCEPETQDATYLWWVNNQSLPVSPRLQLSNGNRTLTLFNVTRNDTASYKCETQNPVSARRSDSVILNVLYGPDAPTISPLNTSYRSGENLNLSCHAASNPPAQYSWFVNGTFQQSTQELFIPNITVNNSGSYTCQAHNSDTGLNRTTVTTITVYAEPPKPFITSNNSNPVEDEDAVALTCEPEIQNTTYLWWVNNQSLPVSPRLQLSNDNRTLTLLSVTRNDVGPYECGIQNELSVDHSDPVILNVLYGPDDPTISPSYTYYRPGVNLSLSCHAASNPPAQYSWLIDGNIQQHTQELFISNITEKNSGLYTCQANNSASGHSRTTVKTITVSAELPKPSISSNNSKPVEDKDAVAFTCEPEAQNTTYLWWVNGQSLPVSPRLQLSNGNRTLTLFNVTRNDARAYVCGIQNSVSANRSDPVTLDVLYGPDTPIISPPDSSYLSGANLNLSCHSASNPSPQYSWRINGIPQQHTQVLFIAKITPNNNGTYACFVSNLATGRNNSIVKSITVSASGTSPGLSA

[2] = molecular target: T1, carcinoembryonic antigen (CEA); assay: electrochemical sensor (cyclic voltammetry); settings: no external field, decrease at 100 fg/ml to 10 pg/ml CEA, not distinguishable from baseline at lower concentration; 5'-NH2; covalently immobilized via MTS/GMBS on ZnO nanorods; CEA diluted in 100 mM PBS, 10 min at room temperature, DI water wash; CV in 1 mM K3Fe(CN)6/K4Fe(CN)6; aptamer stock in 10 mM Tris-HCl, 1 mM EDTA, 0.1 M NaCl, pH 7.40; single-stranded DNA

ATACCAGCTTATTCAATT [CEA aptamer]: binds [1]; binds [2].

Source: article PMC7859218
